The values that follow come from the supplement of paper PMC10849652.

The chains behind the UniProt entries cited, without tags or fusion partners. Where a name states a change or a piece, a line headed by the entry shows the natural chain unless it says otherwise.
UniProt Q9GZZ8: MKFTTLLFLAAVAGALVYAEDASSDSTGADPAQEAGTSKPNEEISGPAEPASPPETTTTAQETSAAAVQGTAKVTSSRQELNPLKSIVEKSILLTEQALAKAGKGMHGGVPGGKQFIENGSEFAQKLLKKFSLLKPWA
UniProt P23490: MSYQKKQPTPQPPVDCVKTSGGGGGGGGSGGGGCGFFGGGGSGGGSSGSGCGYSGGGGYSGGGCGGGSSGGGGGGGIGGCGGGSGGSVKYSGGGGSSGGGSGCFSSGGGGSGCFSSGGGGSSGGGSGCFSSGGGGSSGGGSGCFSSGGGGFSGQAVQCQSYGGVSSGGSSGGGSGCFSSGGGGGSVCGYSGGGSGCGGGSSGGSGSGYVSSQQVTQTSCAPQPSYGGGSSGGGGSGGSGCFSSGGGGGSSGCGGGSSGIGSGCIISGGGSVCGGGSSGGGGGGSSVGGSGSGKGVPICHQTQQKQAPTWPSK
UniProt Q6ZUX7: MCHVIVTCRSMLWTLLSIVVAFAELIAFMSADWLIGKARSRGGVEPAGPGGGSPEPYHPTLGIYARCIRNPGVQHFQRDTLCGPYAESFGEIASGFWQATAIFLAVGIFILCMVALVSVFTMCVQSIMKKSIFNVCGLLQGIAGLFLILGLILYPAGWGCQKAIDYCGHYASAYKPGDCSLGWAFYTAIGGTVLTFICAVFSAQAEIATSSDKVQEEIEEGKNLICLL
UniProt P49916: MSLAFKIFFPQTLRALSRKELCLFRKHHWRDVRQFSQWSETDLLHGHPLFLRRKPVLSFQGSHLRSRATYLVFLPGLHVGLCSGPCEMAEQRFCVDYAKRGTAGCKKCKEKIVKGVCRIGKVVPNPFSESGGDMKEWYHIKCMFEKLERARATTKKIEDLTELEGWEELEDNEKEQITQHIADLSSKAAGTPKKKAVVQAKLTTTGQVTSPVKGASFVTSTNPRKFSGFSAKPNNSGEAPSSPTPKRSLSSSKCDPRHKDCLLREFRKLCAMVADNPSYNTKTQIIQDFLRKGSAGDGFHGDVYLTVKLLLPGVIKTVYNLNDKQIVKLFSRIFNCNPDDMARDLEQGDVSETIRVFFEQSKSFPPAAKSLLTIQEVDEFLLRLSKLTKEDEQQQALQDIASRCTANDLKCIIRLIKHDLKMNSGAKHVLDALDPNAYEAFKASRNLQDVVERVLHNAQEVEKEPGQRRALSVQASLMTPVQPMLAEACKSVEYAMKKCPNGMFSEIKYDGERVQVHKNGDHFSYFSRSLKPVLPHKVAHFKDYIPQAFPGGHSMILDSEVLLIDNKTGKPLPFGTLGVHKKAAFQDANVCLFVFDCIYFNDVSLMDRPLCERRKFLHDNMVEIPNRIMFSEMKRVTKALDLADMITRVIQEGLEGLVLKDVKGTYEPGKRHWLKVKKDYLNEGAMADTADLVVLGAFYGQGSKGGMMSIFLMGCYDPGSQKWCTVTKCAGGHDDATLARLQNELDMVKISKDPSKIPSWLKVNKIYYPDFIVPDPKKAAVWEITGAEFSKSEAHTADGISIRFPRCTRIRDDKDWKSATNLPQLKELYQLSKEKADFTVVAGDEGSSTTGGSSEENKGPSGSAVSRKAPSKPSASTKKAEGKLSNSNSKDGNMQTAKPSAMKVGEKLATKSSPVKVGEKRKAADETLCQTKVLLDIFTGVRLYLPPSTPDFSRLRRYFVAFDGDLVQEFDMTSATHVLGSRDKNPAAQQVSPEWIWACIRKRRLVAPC
UniProt O75427: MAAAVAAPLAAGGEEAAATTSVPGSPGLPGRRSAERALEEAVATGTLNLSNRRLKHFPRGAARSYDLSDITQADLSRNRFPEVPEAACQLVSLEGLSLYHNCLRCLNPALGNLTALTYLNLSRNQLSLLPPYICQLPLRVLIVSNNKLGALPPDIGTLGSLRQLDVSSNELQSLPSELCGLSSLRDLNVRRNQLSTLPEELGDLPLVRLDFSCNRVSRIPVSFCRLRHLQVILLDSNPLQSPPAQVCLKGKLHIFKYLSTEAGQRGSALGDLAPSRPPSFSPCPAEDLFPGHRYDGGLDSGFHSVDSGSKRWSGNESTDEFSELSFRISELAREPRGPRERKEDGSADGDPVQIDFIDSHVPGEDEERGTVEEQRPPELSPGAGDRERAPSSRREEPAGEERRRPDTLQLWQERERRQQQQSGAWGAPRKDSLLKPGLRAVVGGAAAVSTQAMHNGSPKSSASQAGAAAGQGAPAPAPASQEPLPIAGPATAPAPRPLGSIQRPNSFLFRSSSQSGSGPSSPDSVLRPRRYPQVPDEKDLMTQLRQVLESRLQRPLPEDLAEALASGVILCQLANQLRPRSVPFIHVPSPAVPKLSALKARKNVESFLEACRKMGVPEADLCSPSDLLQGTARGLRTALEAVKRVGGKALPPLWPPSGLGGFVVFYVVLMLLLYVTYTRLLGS
UniProt P49917: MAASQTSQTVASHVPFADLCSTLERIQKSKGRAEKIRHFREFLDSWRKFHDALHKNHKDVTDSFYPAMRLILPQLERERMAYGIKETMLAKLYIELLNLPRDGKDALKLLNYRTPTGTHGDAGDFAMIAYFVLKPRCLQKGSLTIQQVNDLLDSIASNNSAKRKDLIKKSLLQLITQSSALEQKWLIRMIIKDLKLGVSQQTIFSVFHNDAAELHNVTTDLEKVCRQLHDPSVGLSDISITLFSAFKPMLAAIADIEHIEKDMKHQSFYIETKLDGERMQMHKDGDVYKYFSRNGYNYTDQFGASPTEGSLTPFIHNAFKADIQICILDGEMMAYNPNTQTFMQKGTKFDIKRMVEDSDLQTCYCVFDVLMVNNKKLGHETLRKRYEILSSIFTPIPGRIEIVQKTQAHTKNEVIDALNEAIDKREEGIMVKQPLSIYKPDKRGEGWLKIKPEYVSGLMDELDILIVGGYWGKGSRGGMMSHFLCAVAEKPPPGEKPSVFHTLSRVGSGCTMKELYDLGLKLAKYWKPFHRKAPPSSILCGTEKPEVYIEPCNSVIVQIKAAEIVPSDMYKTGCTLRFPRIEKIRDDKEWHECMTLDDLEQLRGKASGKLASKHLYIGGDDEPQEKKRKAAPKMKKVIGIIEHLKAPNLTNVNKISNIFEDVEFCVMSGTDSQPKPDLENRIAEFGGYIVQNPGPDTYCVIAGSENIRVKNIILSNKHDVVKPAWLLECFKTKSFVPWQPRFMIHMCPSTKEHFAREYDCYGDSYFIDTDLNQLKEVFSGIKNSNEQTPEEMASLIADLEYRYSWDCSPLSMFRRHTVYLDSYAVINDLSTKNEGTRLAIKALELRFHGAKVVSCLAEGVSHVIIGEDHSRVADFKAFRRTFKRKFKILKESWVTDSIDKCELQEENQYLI
UniProt O00214: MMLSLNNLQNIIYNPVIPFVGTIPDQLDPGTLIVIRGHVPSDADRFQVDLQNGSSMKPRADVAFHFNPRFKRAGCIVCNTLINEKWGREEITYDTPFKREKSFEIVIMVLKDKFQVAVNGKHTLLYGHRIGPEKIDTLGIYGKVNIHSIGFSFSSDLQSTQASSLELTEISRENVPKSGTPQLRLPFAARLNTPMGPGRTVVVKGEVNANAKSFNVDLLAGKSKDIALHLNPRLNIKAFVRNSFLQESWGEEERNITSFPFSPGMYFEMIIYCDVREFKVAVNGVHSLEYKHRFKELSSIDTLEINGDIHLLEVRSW
UniProt Q53QV2: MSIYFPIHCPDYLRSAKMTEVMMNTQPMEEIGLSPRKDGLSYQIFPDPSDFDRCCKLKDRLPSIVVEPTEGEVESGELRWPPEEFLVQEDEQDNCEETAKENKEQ
UniProt Q9P244: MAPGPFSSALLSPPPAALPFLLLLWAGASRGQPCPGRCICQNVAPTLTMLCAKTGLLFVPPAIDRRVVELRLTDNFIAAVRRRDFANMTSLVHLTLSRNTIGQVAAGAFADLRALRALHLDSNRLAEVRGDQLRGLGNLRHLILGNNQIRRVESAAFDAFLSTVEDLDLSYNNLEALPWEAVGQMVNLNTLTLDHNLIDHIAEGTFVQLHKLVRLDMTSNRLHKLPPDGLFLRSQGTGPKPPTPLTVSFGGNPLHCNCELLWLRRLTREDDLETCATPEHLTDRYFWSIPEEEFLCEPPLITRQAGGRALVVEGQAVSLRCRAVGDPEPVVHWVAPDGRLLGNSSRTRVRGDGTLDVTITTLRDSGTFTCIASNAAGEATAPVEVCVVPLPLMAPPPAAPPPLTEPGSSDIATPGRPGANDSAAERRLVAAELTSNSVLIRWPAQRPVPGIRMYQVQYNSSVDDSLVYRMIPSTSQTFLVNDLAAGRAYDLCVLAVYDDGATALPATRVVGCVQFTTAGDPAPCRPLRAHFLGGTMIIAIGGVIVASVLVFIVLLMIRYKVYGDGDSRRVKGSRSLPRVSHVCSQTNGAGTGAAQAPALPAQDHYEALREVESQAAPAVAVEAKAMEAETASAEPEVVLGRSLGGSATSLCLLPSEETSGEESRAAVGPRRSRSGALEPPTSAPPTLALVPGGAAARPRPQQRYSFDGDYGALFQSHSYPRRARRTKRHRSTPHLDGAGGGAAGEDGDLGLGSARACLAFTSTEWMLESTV

This is one part of the list.

What all share (assay): log2 fold change, soluble protein after heating vs DMSO (PISA); higher = thermal stabilisation; K562 cells, 10 uM, 30 min; active = over 0.2 and 3.5 SD of the protein, either way, in both replicates (recomputed)
Compound in assay [1]: CC[C@@H]1C(=O)N(C)c2cnc(Nc3ccc(C(=O)NC4CCN(C)CC4)cc3OC)nc2N1C1CCCC1
The method, boiled down: (§1)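 K562 cells at 2×10^6 cells/mL were treated with 10 μM compound for 30 min. Aliquots were heated for 3 min across 48°C-58°C, pooled, and extracted in PBS with 0.5% NP-40 at 4°C; soluble protein was the supernatant after 21,000xg for 90 min. Soluble protein was quantified by TMTpro 16plex LC-MS/MS with channel sums equalised, and reported as log2 fold change in thermal stability against DMSO controls, with values from duplicates.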

Compound in assay [2]: CC[C@H](C)N1C=C(C2=C(C=C(C=C21)C3=CN=C(C=C3)N4CCNCC4)C(=O)NCC5=C(C=C(NC5=O)C)C)C
The method, boiled down: as §1

Compound in the next assay: CC[C@H](C)[C@@H](C(=O)N[C@@H]([C@@H](C)O)C(=O)N[C@@H](CC(C)C)C(=O)[C@]1(CO1)C)NC(=O)[C@H]([C@@H](C)CC)N(C)C(=O)C [epoxomicin]
The method, boiled down:
as §1

Compound in assay [3]: CN(C)CC(=O)Nc1ccc2[nH]c(=O)c3ccccc3c2c1
The method, boiled down: as §1

Compound in another assay: CN(CCOC1=CC=C(C=C1)C[C@H]2C(=O)NC(=O)S2)C3=CC=CC=N3 (racemic) [rosiglitazone]
The method, boiled down:
as §1

Compound in the next assay: CN1CCN(c2nc(C3=C(c4c[nH]c5ccccc45)C(=O)NC3=O)c3ccccc3n2)CC1 [sotrastaurin]
The method, boiled down:
as §1

Compound in a further assay: CN1CC[C@H](c2c(O)cc(O)c3c(=O)cc(-c4ccccc4Cl)oc23)[C@H](O)C1 [alvocidib]
The method, boiled down: as §1

Compound in a further assay: CNC(=O)c1ccc(Nc2ncc(C(F)(F)F)c(NCc3nccnc3N(C)S(C)(=O)=O)n2)cc1 [defactinib]
The method, boiled down:
as §1

Compound in the next assay: CNCc1ccc(-c2[nH]c3cc(F)cc4c3c2CCNC4=O)cc1 [rucaparib]
The method, boiled down: as §1

Compound in another assay: COC(=O)N[C@@H](C)CNc1nccc(-c2cn(C(C)C)nc2-c2cc(Cl)cc(NS(C)(=O)=O)c2F)n1 [encorafenib]
The method, boiled down:
as §1

Compound in assay [4]: COC(=O)[C@H](CCSC)NC(=O)C1=C(C=C(C=C1)NC[C@H](CS)N)C2=CC=CC=C2
The method, boiled down:
as §1

Compound in assay [5]: CCn1cc(-c2ccnc3[nH]c(-c4cccc(CN(C)C)c4)cc23)c(-c2ccc(NC(=O)N(C)C)cc2)n1
The method, boiled down: as §1

Compound in assay [6]: CN1C2=C(C3=C1C(=O)N(N=C3)CC4=CC(=CC=C4)N)SC(=C2)S(=O)C
The method, boiled down: as §1

Compound in assay [7]: CN1CCC(CNc2ccc3ncc(-c4cccc(OC(F)(F)F)c4)n3n2)CC1
The method, boiled down:
as §1

Compound in another assay: CN1CCN(CCOc2cc(OC3CCOCC3)c3c(Nc4c(Cl)ccc5c4OCO5)ncnc3c2)CC1 [saracatinib]
The method, boiled down:
as §1

Compound in a further assay: CN1CCc2c(c3ccccc3n2Cc2ccc(C(=O)NO)cc2)C1 [Tubastatin A]
The method, boiled down:
as §1

Compound in assay [8]: CNc1nc(-c2ccc3c(N)n[nH]c3c2)cc(N2C[C@@H](C(=O)NC3CCCCC3)CC[C@H]2C)n1
The method, boiled down:
as §1

Compound in the next assay: CC[C@@H]1C(=O)N(C)c2cnc(Nc3ccc(C(=O)N[C@H]4CC[C@H](N5CCN(CC6CC6)CC5)CC4)cc3OC)nc2N1C(C)C [volasertib]
The method, boiled down:
as §1

Compound in assay [9]: CCn1c(C(=O)N(C2CC2)C2CC2)cc2c3c(ncn3C)c(Nc3cc(C)n(C)n3)nc21
The method, boiled down: as §1

Compound in assay [10]: CNC(=O)C1=CC=CC=C1NC2=NC(=NC=C2Cl)NC3=C(C=C(C=C3)N4CCOCC4)OC
The method, boiled down: as §1

Regarding LACRT (UniProt Q9GZZ8), the log2 fold change in assay [1] is inactive: -0.072; in assay [2], inactive: 1.13; with epoxomicin, inactive: 0.346; in [3], inactive: -0.149; in the assay with rosiglitazone, inactive: -0.148; in the assay with sotrastaurin it was inactive: 0.095. Further, the log2 fold change with alvocidib is inactive: 0.08; with defactinib, inactive: 0.028; with rucaparib, inactive: 0.053; in the assay with encorafenib it was inactive: -0.116; in assay [4] it was inactive: 0.253.
LRP1 (UniProt Q07954): the log2 fold change in assay [1] was inactive: 0.111; in [2] it was inactive: -0.036; with epoxomicin it was inactive: -0.038; in [5] it was inactive: -0.227; in assay [3], inactive: -0.042; in assay [6], inactive: 0.428. In addition, the log2 fold change was inactive: -0.096 in assay [7]; inactive: 0.128 with saracatinib; inactive: 0.076 with Tubastatin A; inactive: -0.129 with defactinib; inactive: -0.239 with rucaparib; inactive: -0.12 in assay [8]. In addition, the log2 fold change in the assay with encorafenib was inactive: 0.053; in [4], inactive: 0.012.
Consider LOR (UniProt P23490), for which the log2 fold change was inactive: 0 in assay [1], inactive: 0.711 with epoxomicin, inactive: -0.137 with rucaparib and inactive: -0.09 with encorafenib.
Regarding LHFPL2 (UniProt Q6ZUX7), the log2 fold change is inactive: 0.084 with volasertib; inactive: 0.084 with epoxomicin; inactive: 0.086 in [9]; inactive: 0.38 in assay [3]; inactive: -0.002 with Tubastatin A; inactive: 0.031 in assay [10]. For the same target, the log2 fold change was inactive: -0.185 with defactinib and inactive: -0.446 in assay [4].
With LIG3 (UniProt P49916), the log2 fold change is inactive: 0.012 with volasertib; inactive: -0.197 in [2]; inactive: -0.393 in assay [9]; inactive: -0.134 in assay [5]; inactive: -0.037 in [6]; inactive: -0.175 in assay [7]. In addition, the log2 fold change with saracatinib is inactive: -0.438; with sotrastaurin it was inactive: -0.091; in the assay with alvocidib it was inactive: -0.287; in assay [10], inactive: -0.075; in assay [8], inactive: 0.
In the case of LRCH4 (UniProt O75427), the log2 fold change in assay [1] was inactive: 0.288; with epoxomicin it was inactive: 0.136; in [5] it was inactive: 0.067; in assay [6] it was inactive: 0.495; in assay [7] it was inactive: -0.058; in the assay with saracatinib, inactive: -0.097. Besides, the log2 fold change with sotrastaurin is inactive: -0.068; with rucaparib, inactive: 0.272; in assay [8] it was inactive: 0.113; with encorafenib, inactive: 0.379.
In the case of LIG4 (UniProt P49917), the log2 fold change was inactive: -0.126 in assay [1]; inactive: 0.042 in assay [2]; inactive: -0.143 in [5]; inactive: 0.338 in assay [3]; inactive: 0 in [6]; inactive: 0.268 in assay [7]. For the same target, the log2 fold change with saracatinib was inactive: -0.163; with sotrastaurin, inactive: -0.137; with defactinib, inactive: -0.214; with rucaparib, inactive: 0.198; in assay [8], inactive: 0.168; in the assay with encorafenib, inactive: 0.251. For the same target, in assay [4], the log2 fold change was inactive: -0.241.
Turning to LGALS8 isoform 2 (UniProt O00214), the log2 fold change in [1] is inactive: 0.19; with epoxomicin it was inactive: -0.05; in assay [5] it was inactive: -0.121; in assay [3], inactive: 0.067; in assay [6] it was inactive: 0.328; in assay [7], active: 0.93. The log2 fold change is inactive: -0.359 with saracatinib; inactive: -0.323 with sotrastaurin; inactive: 0.07 with Tubastatin A; inactive: -0.244 in assay [10]; inactive: 0.104 with defactinib; inactive: 0.306 with rucaparib. For the same target, the log2 fold change was inactive: 0.141 in assay [8], inactive: 0.218 with encorafenib and inactive: -0.051 in assay [4].
For the target LBH (UniProt Q53QV2), the values for the log2 fold change (with volasertib; in [2]; with epoxomicin) were inactive: -0.017, inactive: -0.023 and inactive: 0.138, respectively.
With LRFN1 (UniProt Q9P244), the log2 fold change was inactive: -0.015 in assay [1]; inactive: 0.033 with volasertib; inactive: -0.125 with epoxomicin; inactive: 0.134 in assay [3]; inactive: 0.069 in assay [6]; inactive: 0.053 in the assay with saracatinib. Moreover, the log2 fold change in the assay with sotrastaurin is inactive: -0.08; with alvocidib, active: -0.44; with Tubastatin A, inactive: -0.006; in assay [10], inactive: -0.24; in the assay with defactinib, inactive: -0.048; in the assay with rucaparib it was inactive: 0.062. For the same target, the log2 fold change is inactive: -0.028 in assay [8], inactive: -0.227 in the assay with encorafenib and inactive: -0.069 in assay [4].
